Where “and” joins values, the source holds several entries; their conditions need not be identical. Identical values can stand only once. Part of at least one peptide drawing is inferred or uncertain, most often the ends. Peptide text beside a SMILES is read from it.
Legend:
LIM 1215 cells [1] = assay: Colony formation of LIM 1215 cells in semi-solid agar; assay type: cell-based, human; conditions: POMC76-103 20 ng/ml alone
Protocol: Colony formation using various factors was studied. Cells of cell line LIM 1215 were cloned in semi-solid agar (0.3%) following Whitehead et al., Int. J. Canc. 46:858-863 (1990). Briefly, the cells were trypsinized and resuspended in RPMI 1640 plus 5% FCS. Cells in the suspension were counted and then resuspended in a mixture of 0.3% agar in RPMI 1640 plus 10% FCS (40° C.), at a concentration of 10^4 cells per ml. The mixture was plated in 1.5 volumes in 35 mm^2 dishes, and allowed to set. Plates were then incubated at 37° C. in 5% CO2 and 100% humidity for 14 days. A solution of 0.1% crystal violet was aded to the plates, and colonies of more than 40 cells were counted.
Conditioned medium was prepared by incubating confluent monolayers of colon carcinoma cell lines with fresh RPMI 1640 plus 5% FCS for 48 hours. Medium was then removed, sterilized by filtration, and added to the agar plates at a final concentration of 10% (v/v). […] See Whitehead, supra.
The effect of the POMC76-103, alone and combination with epidermal growth factor (EGF) was investigated. The peptide and recombinant human EGF ("rhEGF") were tested alone, and combined, in colony formation assays as described supra.

LIM 1215 cells [2] = conditions: FIGS. 16A/16B

CSCC[C@H](NC(=O)[C@@H](NC(=O)[C@H](Cc1ccc(O)cc1)NC(=O)[C@@H](N)CCCCN)C(C)C)C(=O)NCC(=O)N[C@@H](Cc1c[nH]cn1)C(=O)N[C@@H](Cc1ccccc1)C(=O)N[C@@H](CCCNC(=N)N)C(=O)N[C@@H](Cc1c[nH]c2ccccc12)C(=O)N[C@@H](CC(=O)O)C(=O)N[C@@H](CCCNC(=N)N)C(=O)N[C@@H](Cc1ccccc1)C(=O)NCC(=O)N[C@@H](CCCNC(=N)N)C(=O)N[C@@H](CCCNC(=N)N)C(=O)N[C@@H](CC(N)=O)C(=O)NCC(=O)N[C@@H](CO)C(=O)N[C@@H](CO)C(=O)N[C@@H](CO)C(=O)N[C@@H](CO)C(=O)NCC(=O)N[C@H](C(=O)NCC(=O)NCC(=O)N[C@@H](C)C(=O)N[C@@H](C)C(=O)N[C@@H](CCC(N)=O)C(=O)O)C(C)C [POMC76-103] (H-KYVMGHFRWDRFGRRNGSSSSGVGGAAQ-OH)
LIM 1215 Colony Stimulating Activity, Colonies (LIM 1215 cells [1]): 15 and 20 and 30 | stimulation index (LIM 1215 cells [2]): approximately three fold

— patent US5547940A, “Method for stimulating proliferation of colon cells using POMC76-103” (Ludwig Institute for Cancer Research, priority 1994, dated 1996)
